Assay results as given in publication doi:10.1101/2023.09.07.556670.
These are yes or no findings as the source states them, for the method shown. Binding calls can cover weak binding; strength is not graded here.

Molecular target: full-length TBEV NS5 fused to the Gal4 DNA-binding domain (tick-borne encephalitis virus (TBEV)) (UniProt Q01299)
Experiment: two-hybrid

Substance | binding
C-terminal domain of bovine TYK2 fused to the Gal4 activation domain (from UniProt F1MCX4) (domain or fragment) | binds
C-terminal domain of goat TYK2 fused to the Gal4 activation domain (from UniProt A0A452F668) (domain or fragment) | binds
